Measurements reported in patent publication US9322042B2, “Thermostable cellulases, and mutants thereof, capable of hydrolyzing cellulose in ionic liquid” (The Regents of the University of California, priority 2009, dated 2016).
Some of these results come from one statement about several compounds together.

Assay: Beta-1,4-endoglucanase (CMCase) activity assay of Cel5ATm mutants
Type: biochemical
Settings: purified mutants picked from 96-well plate screening
Protocol: CMCase activity assay is carried out in 50 mM Bis-Tris-HCl buffer (pH 6.5) containing 1% carboxylmethylcellulose (CMC) and incubated at 75° C. for 30 min. Reducing sugars are analyzed by DNS method as described in Xiao Z, Storms R and Tsang A (2005) “Microplate-based carboxymethylcellulose assay for endoglucanase activity”, Anal. Biochem. 342: 176-178. Cellobiose is used as reducing sugars standard. 1 U is defined as enzyme amount to produce 1 μmol reducing sugars in one minute at optimal conditions.
5 μl supernatant is mixed with 35 μl sterile ddH2O and 40 μl 2% CMC in 100 mM Bis-Tris-HCl (pH 6.5) in 96-well PCR plates. These plates are incubated in thermocyclers at 75° C. for 30 min. 80 μl of DNS reagent is added (Ref 1), mixed and incubated at 95° C. for 5 min. The solution is cooled to 4° C. and transferred 100 μl of the products into 96-well plate for reading the ABS at 540 nm.
Clones from the mutant library are analyzed as described for the wild-type of Cel5ATm except that after transferring normal cultures into autoinduction medium, normal culture plates are added by sterile glycerol to 10%, mixed and stored at −80° C. for future investigation. The clones with endoglucanase activity larger than 120% of the wild-type are selected to express the enzymes in 5 ml culture and purified by Ni-NTA columns. […]

B1: P15H11: T. maritima Cel5A cellulase mutant with S177R; SEQ ID NO: 22 (protein, listed as Thermotoga maritima)
chain: MGVDPFERNKILGRGINIGNALEAPNEGDWGVVIKDEFFDIIKEAGFSHVRIPIRWSTHAYAFPPYKIMDRFFKRVDEVINGALKRGLAVVINIHHYEELMNDPEEHKERFLALWKQIADRYKDYPETLFFEILNEPHGNLTPEKWNELLEEALKVIRSIDKKHTIIIGTAEWGGIRALEKLSVPKWEKNSIVTIHYYNPFEFTHQGAEWVEGSEKWLGRKWGSPDDQKHLIEEFNFIEEWSKKNKRPIYIGEFGAYRKADLESRIKWTSFVVREMEKRRWSWAYWEFCSGFGVYDTLRKTWNKDLLEALIGGDSIE
- improved specific activities (over wild-type): 17.58-31.56%
